In paper doi:10.1101/2023.02.19.529112:
These are yes or no findings as the source states them, for the method shown. Some results given as binding are weak or reduced against the parent protein; the word gives no strength. Tags and fused reporters may be left off the sequences shown.

B1: HAUS1 with C-terminal 3C-His6-tag (protein, UniProt Q96CS2-1 1-278)
chain: MEPQEERETQVAAWLKKIFGDHPIPQYEVNPRTTEILHHLSERNRVRDRDVYLVIEDLKQKASEYESEAKYLQDLLMESVNFSPANLSSTGSRYLNALVDSAVALETKDTSLASFIPAVNDLTSDLFRTKSKSEEIKIELEKLEKNLTATLVLEKCLQEDVKKAELHLSTERAKVDNRRQNMDFLKAKSEEFRFGIKAAEEQLSARGMDASLSHQSLVALSEKLARLKQQTIPLKKKLESYLDLMPNPSLAQVKIEEAKRELDSIEAELTRRVDMMEL
B2: HAUS3 (protein, UniProt Q68CZ6-1 1-603)
chain: MSCGNEFVETLKKIGYPKADNLNGEDFDWLFEGVEDESFLKWFCGNVNEQNVLSERELEAFSILQKSGKPILEGAALDEALKTCKTSDLKTPRLDDKELEKLEDEVQTLLKLKNLKIQRRNKCQLMASVTSHKSLRLNAKEEEATKKLKQSQGILNAMITKISNELQALTDEVTQLMMFFRHSNLGQGTNPLVFLSQFSLEKYLSQEEQSTAALTLYTKKQFFQGIHEVVESSNEDNFQLLDIQTPSICDNQEILEERRLEMARLQLAYICAQHQLIHLKASNSSMKSSIKWAEESLHSLTSKAVDKENLDAKISSLTSEIMKLEKEVTQIKDRSLPAVVRENAQLLNMPVVKGDFDLQIAKQDYYTARQELVLNQLIKQKASFELLQLSYEIELRKHRDIYRQLENLVQELSQSNMMLYKQLEMLTDPSVSQQINPRNTIDTKDYSTHRLYQVLEGENKKKELFLTHGNLEEVAEKLKQNISLVQDQLAVSAQEHSFFLSKRNKDVDMLCDTLYQGGNQLLLSDQELTEQFHKVESQLNKLNHLLTDILADVKTKRKTLANNKLHQMEREFYVYFLKDEDYLKDIVENLETQSKIKAVSLED
B3: HAUS4 (protein, UniProt Q9H6D7-1 1-363)
chain: MASGDFCSPGEGMEILQQVCSKQLPPCNLSKEDLLQNPYFSKLLLNLSQHVDESGLSLTLAKEQAQAWKEVRLHKTTWLRSEILHRVIQELLVDYYVKIQDTNVTSEDKKFHETLEQRLLVTELMRLLGPSQEREIPPLLGLEKADLLELMPLSEDFVWMRARLQQEVEEQLKKKCFTLLCYYDPNSDADSETVKAAKVWKLAEVLVGEQQQCQDAKSQQKEQMLLLEKKSAAYSQVLLRCLTLLQRLLQEHRLKTQSELDRINAQYLEVKCGAMILKLRMEELKILSDTYTVEKVEVHRLIRDRLEGAIHLQEQDMENSRQVLNSYEVLGEEFDRLVKEYTVLKQATENKRWALQEFSKVYR
B4: HAUS5 (protein, UniProt O94927-1 1-633)
chain: MELAQEARELGCWAVEEMGVPVAARAPESTLRRLCLGQGADIWAYILQHVHSQRTVKKIRGNLLWYGHQDSPQVRRKLELEAAVTRLRAEIQELDQSLELMERDTEAQDTAMEQARQHTQDTQRRALLLRAQAGAMRRQQHTLRDPMQRLQNQLRRLQDMERKAKVDVTFGSLTSAALGLEPVVLRDVRTACTLRAQFLQNLLLPQAKRGSLPTPHDDHFGTSYQQWLSSVETLLTNHPPGHVLAALEHLAAEREAEIRSLCSGDGLGDTEISRPQAPDQSDSSQTLPSMVHLIQEGWRTVGVLVSQRSTLLKERQVLTQRLQGLVEEVERRVLGSSERQVLILGLRRCCLWTELKALHDQSQELQDAAGHRQLLLRELQAKQQRILHWRQLVEETQEQVRLLIKGNSASKTRLCRSPGEVLALVQRKVVPTFEAVAPQSRELLRCLEEEVRHLPHILLGTLLRHRPGELKPLPTVLPSIHQLHPASPRGSSFIALSHKLGLPPGKASELLLPAAASLRQDLLLLQDQRSLWCWDLLHMKTSLPPGLPTQELLQIQASQEKQQKENLGQALKRLEKLLKQALERIPELQGIVGDWWEQPGQAALSEELCQGLSLPQWRLRWVQAQGALQKLCS
B5: HAUS6 (protein, UniProt Q7Z4H7-1 1-955)
chain: MSSASVTAFEKEHLWMYLQALGFEPGPATIACGKIVSHTHLGVNMFDKLNRDAFHIISYFLFQVLDQSLTKEVFKFCWPPFDQKSDTEFRKHCCEWIKRISGECGSSFPQVVGSLFLSPGGPKFIHLMYHFARFVAMKYIKSNSKNSSHHFVETFNIKPQDLHKCIARCHFARSRFLQILQRQDCVTQKYQENAQLSVKQVRNLRSECIGLENQIKKMEPYDDHSNMEEKIQKVRSLWASVNETLMFLEKEREVVSSVLSLVNQYALDGTNVAINIPRLLLDKIEKQMFQLHIGNVYEAGKLNLLTVIQLLNEVLKVMKYERCQADQARLTVDLHYLEKETKFQKERLSDLKHMRYRIKDDLTTIRHSVVEKQGEWHKKWKEFLGLSPFSLIKGWTPSVDLLPPMSPLSFDPASEEVYAKSILCQYPASLPDAHKQHNQENGCRGDSDTLGALHDLANSPASFLSQSVSSSDRNSVTVLEKDTKMGTPKEKNEAISKKIPEFEVENSPLSDVAKNTESSAFGGSLPAKKSDPFQKEQDHLVEEVARAVLSDSPQLSEGKEIKLEELIDSLGSNPFLTRNQIPRTPENLITEIRSSWRKAIEMEENRTKEPIQMDAEHREVLPESLPVLHNQREFSMADFLLETTVSDFGQSHLTEEKVISDCECVPQKHVLTSHIDEPPTQNQSDLLNKKVICKQDLECLAFTKLSETSRMETFSPAVGNRIDVMGGSEEEFMKILDHLEVSCNKPSTNKTMLWNSFQISSGISSKSFKDNDFGILHETLPEEVGHLSFNSSSSSEANFKLEPNSPMHGGTLLEDVVGGRQTTPESDFNLQALRSRYEALKKSLSKKREESYLSNSQTPERHKPELSPTPQNVQTDDTLNFLDTCDLHTEHIKPSLRTSIGERKRSLSPLIKFSPVEQRLRTTIACSLGELPNLKEEDILNKSLDAKEPPSDLTR

Target: T1, HAUS2 with C-terminal mGFP-TEV-TwinStrep tag (human) (UniProt Q9NVX0)
T1 sequence: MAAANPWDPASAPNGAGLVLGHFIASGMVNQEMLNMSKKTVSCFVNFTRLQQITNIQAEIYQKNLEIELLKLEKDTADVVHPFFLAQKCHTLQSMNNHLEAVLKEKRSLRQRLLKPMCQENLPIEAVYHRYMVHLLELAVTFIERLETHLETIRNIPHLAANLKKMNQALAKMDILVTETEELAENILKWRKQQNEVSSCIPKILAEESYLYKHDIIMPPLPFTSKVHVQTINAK
Assay: co-purification

Molecule	binding
HAUS7 (from UniProt Q99871-1 1-358)	binds
B1	binds
B2	binds
B3	binds
B4	binds
B5	binds
